Source: patent publication US20250223580A1
No constants are given. Whether binding was seen depends on the method and setting. Binding can be weak; no strength is given. Sequences can lack the tags named with a protein. For some assays here: In cells and extracts the contact can be indirect.

Columns and labels:
[1] = biological target: dCas7-11 (Cas7-11 D429A/D654A) as it stands in the cryo-EM complexes (Desulfonema ishimotonii); assay: single particle cryo-EM
[2] = biological target: Cas7-11 from Desulfonema ishimotonii (Desulfonema ishimotonii); assay: tandem affinity co-purification from E. coli
[3] = biological target: Cas7-11 from Desulfonema ishimotonii (Desulfonema ishimotonii); assay: tandem affinity co-purification from E. coli (Strep-Tactin on Cas7-11, Ni-NTA on Csx29)
[4] = biological target: Cas7-11 from Desulfonema ishimotonii (Desulfonema ishimotonii); assay: tandem affinity co-purification of the Cas7-11-Csx29 complex, SDS-PAGE stained with Coomassie
[5] = biological target: Cas7-11 from Desulfonema ishimotonii (Desulfonema ishimotonii); assay: tandem affinity co-purification (Streptactin on the Cas7-11 tag, then Ni-NTA on the Csx29 tag) with crRNA coexpressed, SDS-PAGE stained with Coomassie

Measured: binding

B1: Csx29 (TPR-CHAT protease) from Desulfonema ishimotonii, 6xHis-tagged (enzyme, not shown: small tags and cut ends)
chain: MSNPIRDIQDRLKTAKFDNKDDMMNLASSLYKYEKQLMDSSEATLCQQGLSNRPNSFSQLSQFRDSDIQSKAGGQTGKFWQNEYEACKNFQTHKERRETLEQIIRFLQNGAEEKDADDLLLKTLARAYFHRGLLYRPKGFSVPARKVEAMKKAIAYCEIILDKNEEESEALRIWLYAAMELRRCGEEYPENFAEKLFYLANDGFISELYDIRLFLEYTEREEDNNFLDMILQENQDRERLFELCLYKARACFHLNQLNDVRIYGESAIDNAPGAFADPFWDELVEFIRMLRNKKSELWKEIAIKAWDKCREKEMKVGNNIYLSWYWARQRELYDLAFMAQDGIEKKTRIADSLKSRTTLRIQELNELRKDAHRKQNRRLEDKLDRIIEQENEARDGAYLRRNPPCFTGGKREEIPFARLPQNWIAVHFYLNELESHEGGKGGHALIYDPQKAEKDQWQDKSFDYKELHRKFLEWQENYILNEEGSADFLVTLCREIEKAMPFLFKSEVIPEDRPVLWIPHGFLHRLPLHAAMKSGNNSNIEIFWERHASRYLPAWHLFDPAPYSREESSTLLKNFEEYDFQNLENGEIEVYAPSSPKKVKEAIRENPAILLLLCHGEADMTNPFRSCLKLKNKDMTIFDLLTVEDVRLSGSRILLGACESDMVPPLEFSVDEHLSVSGAFLSHKAGEIVAGLWTVDSEKVDECYSYLVEEKDFLRNLQEWQMAETENFRSENDSSLFYKIAPFRIIGFPAE
binds: all assays above
